What follows are compounds tested on SKBR3 (assay: Cell viability (CellTiter-Blue, 72 h), SKBR3 breast cancer cells). Settings: SKBR3, 1% FBS.
Format: cell-based
Description: The cell lines tested in this Example were as follows. Breast cancer: MDA-MB-231; SK-BR3; and BT474. Liver cancer: HepG2.
The phytocannabinoids were tested alone and in various ratioed combinations in media containing final concentrations of 10% and 1% foetal bovine serum at 72 h for the breast and prostate cancer lines and 1% foetal bovine serum for the liver cancer line HepG2.
Each tumour cell line was maintained in vitro in RPMI 1640+10% heat inactivated FBS and 2 mM L-glutamine (growth media) at 37° C. in 5% CO2 and humidified conditions. The cells were harvested, washed, re-suspended into growth medium and counted. The cells were re-suspended into assay media (RPMI 1640+5% heat inactivated FBS+ and 2 mM L-glutamine) at 8×104-2×10^5 cells/ml (dependent upon cell type) and plated into the middle 240 wells of 384 well tissue culture plates (Corning CellBind, black-wall plates) 12.5 μl/well aliquots; 62.5 μl of growth media was aliquoted into the outer wells. There were 4 plates for each cell line. The plates were incubated overnight at 37° C., in 5% humidified CO2.
The phytocannabinoid test compounds were prepared in 100% DMSO vehicle at a stock concentration of 10 mM.
Starting with the 10 mM stock, the compounds were diluted to 125 μM in FBS-free growth media.
These were diluted in FBS-free growth media to 125 μM before serial dilution.
5 volumes of CBD 10 mM stock was added to 1 volume of the other agent (also at 10 mM) and 4 volumes of DMSO. This made a final concentration of 5 mM:1 mM. This was then diluted in FBS-free growth media so the top concentration of CBD would be 125 μM (before serial dilution). Each compound and compound combination stock was serially diluted in FBS-free growth media (containing 1.25% v/v DMSO) from 125 μM to 41.7, 13.89, 4.63, 1.54, 0.514, 0.171, 0.057 and 0.019 μM (1.25× final assay concentrations). Vehicle was prepared at equivalent dilutions in assay media. The top final concentration of compound in the assay was always 100 μM so CBD5:1CBG was 100 μM CBD and 20 μM CBG.
Taxotere SOC was prepared at a stock concentration of 1 mM in 100% DMSO. Taxotere was serially diluted from the stock solution into FBS-free growth media to 12.5 μM, then serially diluted in FBS-free growth media containing 1.25% DMSO to 4.17, 1.39, 0.46, 0.154, 0.051, 0.017, 0.006, 0.002 μM (1.25× final assay concentrations).
This was then serially diluted in FBS-free growth media to 0.417, 0.139, 0.046, 0.0154, 0.0051, 0.0017, 0.0006, 0.0002 μM (1.25× final assay concentrations). This was plated as a positive control for the SKBR3 & BT474 cell lines. 50 μl per well of compound/vehicle dilutions was added to the plates in replicates of 6. Where applicable total volume in the well was made up to 62.5 μl with assay media.
The plates were incubated for 72 h at 37° C. in 5% humidified CO2. To develop the plates, at 72 h, 10 μl of CellTiter-Blue™ reagent was added to each test/blank well. […] Fluorescence was measured using a Flex II Station plate reader (570 nm excitation wavelength, 600 nm emission wavelength, 590 nm cut-off) after 3 h. […]
The raw data values expressed in relative fluorescent units were normalised to the vehicle for each individual plate and any reduction in fluorescence indicated a decrease in viability.
The data were analysed in GraphPad PRISM using a non-linear sigmoidal plot with variable slope (asymmetric five point linear regression) and where possible an IC50 value for each single compound and combination was generated. […]

Row | SMILES | m (shape parameter of dose effect curve)
1 | C=C(C)[C@@H]1CCC(C)=C[C@H]1c1c(O)cc(CCCCC)cc1O [CBD, Cannabidiol] | 2.64
2 | C=C(C)[C@@H]1CCC(C)=C[C@H]1c1c(O)cc(CCCCC)c(C(=O)O)c1O [CBDA, Cannabidiolic acid] | 2.57
3 | CCCCCc1cc(O)c(C/C=C(\C)CCC=C(C)C)c(O)c1 [CBG, Cannabigerol] | 2.51
4 | CCCCCc1cc(O)c(C/C=C(\C)CCC=C(C)C)c(O)c1C(=O)O [CBGA, Cannabigerolic acid] | 1.97
5 | CCCc1cc(O)c2c(c1)OC(C)(C)[C@@H]1CCC(C)=C[C@@H]21 [THCV, Tetrahydrocannabivarin] | 1.94
